Results taken from the supplement of paper PMC7858590.
± gives the standard deviation of the averaged measurements. The full ranking holds about 3,800 compounds; the median of “cell shape (eccentricity) Z-score vs DMSO control” is about 1.1, and the lowest 2% start at about -4.7. The list shows a part of the results.

system: human monocyte-derived macrophages (M0); test: cell shape (eccentricity) Z-score vs DMSO control; higher = more elongated, M2-like morphology; conditions: 20 µM; 24 h; macrophage state: M0 (M-CSF)

Structure (SMILES)	cell shape (Z-score)
CC1=CC(=O)c2ccccc2C1=O	-4.32
Nc1cc(Nc2ccc(S(N)(=O)=O)cc2)ncn1	0.81
CC1(C)CC[C@@]2(C(=O)O)C(C1)C1=CCC3[C@@]4(C)CC[C@H](O[C@@H]5O[C@H](C(=O)O)[C@@H](O[C@H]6OC[C@](O)(CO)[C@H]6O)[C@H](O)[C@H]5O)C(C)(C)C4CC[C@@]3(C)[C@]1(C)C[C@H]2O (stereo not given in full)	2.82
O[C@]12CO[C@H](c3ccc4c(c3)OCO4)[C@H]1CO[C@@H]2c1ccc2c(c1)OCO2	-1.62 ± 1.1
COc1ccc(-n2nc3c4c([nH]cc-3c2=O)CCCCC4)cc1	1.21
COc1ccc(C2CC(=O)Oc3cc(O)cc(O)c32)cc1 (stereo not given)	-0.542
O=C1Nc2cc(Br)ccc2/C1=C1/Nc2ccccc2/C1=N/O	5.17
Cc1ccccc1C(OCCN(C)C)c1ccccc1 (stereo not given)	-0.651
CNCCCCOc1ccccc1Cc1ccccc1	4.84
CCCCOC(=O)c1ccc(O)cc1	1.53
COC(=O)[C@H]1[C@H]2C[C@H]3c4[nH]c5ccccc5c4CCN3C[C@H]2CC[C@@H]1O	2.17
Oc1ncnc2ccccc12	1.8
O=S(=O)(c1cccc2cnccc12)N1CCCNCC1	8.08 ± 1.5
C=CCNC1=C2C[C@@H](C)C[C@H](OC)[C@H](O)[C@@H](C)/C=C(\C)[C@H](OC(N)=O)[C@@H](OC)/C=C\C=C(/C)C(=O)NC(=CC1=O)C2=O	2.37
C=CC(C)(C)[C@@]12C[C@H]3C(=O)N[C@H]([C@@H](C)CC)C(=O)N3[C@@H]1Nc1ccccc12	-1.4
COC(=O)C1=C(C)NC(C)=C([N+](=O)[O-])C1c1ccccc1C(F)(F)F (stereo not given)	2.59
C[C@@H]1O[C@@H](OC[C@H]2O[C@@H](Oc3c(-c4ccc(O)c(O)c4)oc4cc(O)cc(O)c4c3=O)[C@H](O)[C@@H](O)[C@@H]2O)[C@H](O)[C@H](O)[C@H]1O	3.23
C=C(CCCCCCCC(=O)O)C(=O)O	0.953
CNCC[C@@H](Oc1ccccc1C)c1ccccc1	0.617
COc1ccc(N(C(=O)CCl)C(C(=O)NCCc2ccccc2)c2cccs2)cc1Cl (stereo not given)	-2.11
CC1(C)NC(=O)N(c2ccc([N+](=O)[O-])c(C(F)(F)F)c2)C1=O	2.1
CC(C)C1C2CCC(C2)C1N (stereo not given)	-3.98
NS(=O)(=O)C#Cc1ccccc1	3.29

In a second layout: results already given
Structure (SMILES),cell shape (Z-score)
CC1(C)CC[C@@]2(C(=O)O)C(C1)C1=CCC3[C@@]4(C)CC[C@H](O[C@@H]5O[C@H](C(=O)O)[C@@H](O[C@H]6OC[C@](O)(CO)[C@H]6O)[C@H](O)[C@H]5O)C(C)(C)C4CC[C@@]3(C)[C@]1(C)C[C@H]2O (stereo not given in full),2.82
C=CCNC1=C2C[C@@H](C)C[C@H](OC)[C@H](O)[C@@H](C)/C=C(\C)[C@H](OC(N)=O)[C@@H](OC)/C=C\C=C(/C)C(=O)NC(=CC1=O)C2=O,2.37
C[C@@H]1O[C@@H](OC[C@H]2O[C@@H](Oc3c(-c4ccc(O)c(O)c4)oc4cc(O)cc(O)c4c3=O)[C@H](O)[C@@H](O)[C@@H]2O)[C@H](O)[C@H](O)[C@H]1O,3.23

Next part:

Structure (SMILES)	cell shape (Z-score)
COc1ccc(C2CC(=O)c3ccccc3O2)cc1 (stereo not given)	1.92
O=C(O)c1cc(-c2ccc(F)cc2F)ccc1O	0.278
Cc1cc2c(cc1O[C@@H]1O[C@H](CO[C@@H]3OC[C@@H](O)[C@H](O)[C@H]3O)[C@@H](O)[C@H](O)[C@H]1O)C(=O)c1ccccc1C2=O	2.61 ± 1.1
CN=C(NC)NCc1ccc(OC)cc1	-1.04
COC(=O)[C@@]1(C)CCC[C@]2(C)c3ccc(O)c(C(C)C)c3CCC12 (stereo not given in full)	-0.308
CC1(C)CC[C@]2(C(=O)O[C@@H]3O[C@H](CO)[C@@H](O)[C@H](O)[C@H]3O)CC[C@]3(C)C(=CCC4[C@@]5(C)CC[C@H](O[C@@H]6O[C@H](C(=O)O)[C@@H](O[C@@H]7O[C@H](CO)[C@@H](O)[C@H](O)[C@H]7O)[C@H](O)[C@H]6O)C(C)(C)C5CC[C@]43C)C2C1 (stereo not given in full)	0.657
CCC(=O)OCC(=O)C1(OC(=O)CC)C(C)CC2C3CCC4=CC(=O)C=CC4(C)C3(Cl)C(O)CC21C (stereo not given)	-0.731
O=C1CC(c2ccccc2)Oc2cc(O)cc(O)c21 (stereo not given)	-3.13
CC(C)[C@@H]1CC[C@@]2(C)[C@H](O)CC[C@@](C)(O)[C@@H]2[C@@H]1OC(=O)/C=C/c1ccccc1	-0.949
Cc1cc(C)c(N(Cc2ccccc2)S(=O)(=O)c2ccc(OCCNC(=O)c3cc4ccccc4o3)cc2)c(C(=O)NO)c1	0.668
O=S1(=O)c2cccc3cccc(c23)N1CCCN1CCN(c2ccc(F)cc2)CC1	0.323
O=C1CC(c2ccc(O)cc2)Oc2cc(O[C@@H]3O[C@H](CO)[C@@H](O)[C@H](O)[C@H]3O)cc(O)c21 (stereo not given in full)	0.887
Cc1[nH]c(=O)c(C#N)cc1-c1ccncc1	4.18
CC(=O)C1C(=O)[C@@H]2[C@H]3c4c[nH]c5cccc(c45)C[C@H]3C(C)(C)N2C1=O (stereo not given in full)	-2.33
OCCN1CCN(CCCN2c3ccccc3Sc3ccc(Cl)cc32)CC1	-1.01
C/C(=C\C=C\C(C)C)CC/C=C(\C)CCOc1c(O)cc2c(c1O)CNC2=O	1.89
COc1cc(N2CCC(N3CCN(C)CC3)CC2)ccc1Nc1ncc(Cl)c(Nc2ccccc2S(=O)(=O)C(C)C)n1	2.09
CN(C)C(=N)NC(=N)N	1.78
NCCC(=O)N[C@@H](Cc1cnc[nH]1)C(=O)O.[Zn+3]	0.66
O=C(Nc1ccccc1)OCC(CN1CCCCC1)OC(=O)Nc1ccccc1 (stereo not given)	1.03
Cc1noc(C)c1NC(=O)Nc1ccc2c(c1)C(=O)N([C@@H](C)CO)C[C@@H](C)[C@@H](CN(C)CC1CCCCC1)O2	3.18
COC1CCC(C(=O)c2ccc3nc4c(cc3c2)CCCO4)CC1 (stereo not given)	-0.0555
